From ChEMBL document CHEMBL3988442, “University of Dundee, Small-Polar-MMV Screening Library” (2021).

Sequences of proteins named here, by UniProt entry; tags and fusion partners are left off.
UniProt P9WPC5, whole entry: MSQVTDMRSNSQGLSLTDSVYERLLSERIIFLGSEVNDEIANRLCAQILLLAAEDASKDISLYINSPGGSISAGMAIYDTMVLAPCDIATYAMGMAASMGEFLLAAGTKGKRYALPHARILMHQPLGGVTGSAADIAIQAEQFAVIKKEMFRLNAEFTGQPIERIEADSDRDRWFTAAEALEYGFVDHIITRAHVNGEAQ
UniProt P9WPC3, whole entry partner: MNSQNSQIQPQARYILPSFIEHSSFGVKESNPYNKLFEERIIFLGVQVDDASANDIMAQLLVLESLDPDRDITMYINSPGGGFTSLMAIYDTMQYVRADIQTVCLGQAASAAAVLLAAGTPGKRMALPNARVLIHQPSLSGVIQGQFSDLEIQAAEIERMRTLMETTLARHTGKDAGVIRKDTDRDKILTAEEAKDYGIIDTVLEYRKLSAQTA

Toxoplasma: 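Assay of Toxoplasma gondii numbers, read through their beta-galactosidase reporter with a colour substrate. Concentration: 10 µM. Higher reads as fewer parasites (inferred from which compounds were picked for retests). About 67,000 compounds were tested under these conditions; 0.38% (about 260) showed 50% or more at least once.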
ClpP1P2: 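ClpP1P2, Mycobacterium tuberculosis (UniProt P9WPC5 and UniProt P9WPC3). Protease assay of ClpP1P2, read by the AMC dye that it sets free. Concentration: 50 µM. Higher reads as stronger inhibition, judged from the few compounds that gave an IC50. Most other retested compounds had strongly negative values. Of about 69,000 compounds tested this way, about 10 (0.015%) reached 50% or more in at least one test.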
Leishmania in macrophages: 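Cell assay of Leishmania donovani living inside macrophages; the read-out is not stated. Concentration: 30 µM. The record gives no direction; compounds that gave an IC50 in retests scored well above the rest, so higher reads as stronger inhibition. Size under these conditions: about 69,000 compounds, about 1,000 of them at 50% or above in at least one test.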
T. brucei: 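Whole-parasite assay of Trypanosoma brucei over 72 hours; the read-out is not stated. Tested at 30 µM. The record gives no direction; compounds that gave an IC50 in retests scored well above the rest, so higher reads as stronger inhibition. Values scatter widely below zero; nearly all retest evidence comes from the higher of the two concentrations used. About 64,000 compounds were tested under these conditions; 1.5% (about 940) showed 50% or more at least once.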

Results are given as percent effect. How 0% and 100% were set is not recorded. Most values in the screen are low, and negative values occur. Compounds were drawn at random from those tested, without regard to their results.

{"structure": "CCN(CC)C(=O)CCCNC(=O)c1csc(NC2CC2)n1", "Toxoplasma": -8.848, "ClpP1P2": 0.5637, "Leishmania in macrophages": -2.373, "T. brucei": -27.48}
{"structure": "COc1ccc(F)c(CN2CCC3(CCC(=O)N(CC(N)=O)C3)CC2)c1", "Toxoplasma": -0.7709, "ClpP1P2": 7.276, "Leishmania in macrophages": -4.298, "T. brucei": -19.6}
{"structure": "CCc1ccc(NC(=O)N2C[C@H]3C[C@H](C(=O)N4CCCC4)[C@@H](C2)O3)cc1", "ClpP1P2": -2.897}
{"structure": "Cc1nc(C(C)NC(=O)COc2ccc(F)cc2)n[nH]1", "stereo": "stereo not drawn", "Toxoplasma": -6.424, "ClpP1P2": 13.38, "Leishmania in macrophages": 26.2, "T. brucei": -30}
{"structure": "CN(C(=O)Cn1nc(-c2ccccc2Cl)ccc1=O)C1CCS(=O)(=O)C1", "stereo": "stereo not drawn", "Toxoplasma": -12.55, "ClpP1P2": -2.372, "Leishmania in macrophages": -2.682, "T. brucei": -36.83}
{"structure": "Cn1cccc1C(=O)N1CCC2(CCN2c2ncccn2)C1", "stereo": "stereo not drawn", "ClpP1P2": 3.59}
{"structure": "O=C1CC(NCc2ccc(OC(F)F)cc2)CN1Cc1cccc(F)c1", "stereo": "stereo not drawn", "Toxoplasma": -0.1122, "ClpP1P2": -17.42, "Leishmania in macrophages": 10.73, "T. brucei": 0.3848}
{"structure": "COc1cccc(COCC(O)CN2CC(n3cccn3)C2)c1", "stereo": "stereo not drawn", "Toxoplasma": -18.77, "ClpP1P2": 15.24, "Leishmania in macrophages": 9.957, "T. brucei": 9.153}
{"structure": "CCn1ccnc1CN1CCCN(C(=O)c2cnc(C)cn2)CC1", "Toxoplasma": 4.174, "ClpP1P2": -12.98, "Leishmania in macrophages": 27.52}
{"structure": "COCCC1CCN([C@@H]2c3ccccc3C3(CCNCC3)[C@H]2O)CC1", "Toxoplasma": -3.806, "ClpP1P2": -4.307, "Leishmania in macrophages": 7.813, "T. brucei": -24.76}
{"structure": "O=C(O)C(F)(F)F.[H][C@]12CCN(C(=O)c3ccncc3F)[C@@]1([H])CC[C@@H](COCC(C)C)O2", "Toxoplasma": -3.788, "Leishmania in macrophages": -0.05188, "T. brucei": -23.42}
{"structure": "CCOC(=O)[C@]12CCCN(Cc3nccs3)C[C@H]1CN(C(C)C)C2", "ClpP1P2": 7.216}
{"structure": "COC1CCCN(C(=O)Nc2nc(C)n(C)n2)C1", "stereo": "stereo not drawn", "Toxoplasma": 13.44, "ClpP1P2": -7.119, "Leishmania in macrophages": 27.05, "T. brucei": 32.25}
{"structure": "Cc1ncc2c(n1)CCCC2NC(=O)c1ccc(Cn2cccn2)cc1", "stereo": "stereo not drawn", "Toxoplasma": 20.58, "ClpP1P2": 3.373, "Leishmania in macrophages": 26.01, "T. brucei": 6.464}
{"structure": "CC(C)Cc1nc(CN2CCN(CC(O)c3ccccc3)CC2)no1", "stereo": "stereo not drawn", "Toxoplasma": 15.21, "ClpP1P2": -2.824, "Leishmania in macrophages": 35.6, "T. brucei": -1.744}
{"structure": "Cn1cc(N2Cc3nc(N4CCOCC4)ncc3C2=O)cn1", "Toxoplasma": 12.73, "ClpP1P2": 12.84, "Leishmania in macrophages": 59.37, "T. brucei": -24.66}
{"structure": "O=C(O)C(F)(F)F.[H][C@@]12COC[C@]1([H])[C@@H](OCc1csc(C)n1)CN2C(=O)c1ccc[nH]1", "Toxoplasma": -2.309, "Leishmania in macrophages": 31.26, "T. brucei": -1.472}
{"structure": "CCN(Cc1ccc2c(c1)OCCO2)C(=O)NCc1nc(C)cs1", "Toxoplasma": -2.894, "ClpP1P2": -2.173, "Leishmania in macrophages": -17.18, "T. brucei": -23.62}
{"structure": "O=C(O)C(F)(F)F.O=C(O)C(F)(F)F.c1cnc(N2CCOC3(CCN(CC4CCCCC4)CC3)C2)nc1", "Toxoplasma": -3.494, "Leishmania in macrophages": 39.55, "T. brucei": 0.2374}
{"structure": "Fc1cnc(N2CCOC3(CCN(Cc4cccs4)CC3)C2)nc1", "ClpP1P2": 10.33}
{"structure": "CCCN(CCC)S(=O)(=O)NC(C)C(=O)N(C)C", "stereo": "stereo not drawn", "Toxoplasma": 7.449, "ClpP1P2": -5.301, "Leishmania in macrophages": 24.03, "T. brucei": -10.57}
{"structure": "CN(C)C(=O)CCCn1ccc(NCc2ccc(C#N)cc2)n1", "Toxoplasma": 1.436, "ClpP1P2": -4.01, "Leishmania in macrophages": 6.957, "T. brucei": -1.248}